In publication PMC6424967:
Residue numbers refer to the chain shown, from its start. These are yes or no findings as the source states them, for the method shown. In cells and extracts the contact can be indirect. Some entries that bind do so weakly or less than the wild type. Sequences can lack the tags named with a protein.

Sequences of proteins named here, by UniProt entry; tags and fusion partners are left off. A change or cut given only in a name is not applied to a line headed by its entry.
UniProt P40337: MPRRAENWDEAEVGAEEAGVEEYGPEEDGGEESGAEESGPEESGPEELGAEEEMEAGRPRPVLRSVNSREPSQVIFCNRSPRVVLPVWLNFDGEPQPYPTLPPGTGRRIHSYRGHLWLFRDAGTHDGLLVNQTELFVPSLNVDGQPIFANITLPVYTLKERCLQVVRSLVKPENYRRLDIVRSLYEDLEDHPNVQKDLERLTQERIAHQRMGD
UniProt Q99814: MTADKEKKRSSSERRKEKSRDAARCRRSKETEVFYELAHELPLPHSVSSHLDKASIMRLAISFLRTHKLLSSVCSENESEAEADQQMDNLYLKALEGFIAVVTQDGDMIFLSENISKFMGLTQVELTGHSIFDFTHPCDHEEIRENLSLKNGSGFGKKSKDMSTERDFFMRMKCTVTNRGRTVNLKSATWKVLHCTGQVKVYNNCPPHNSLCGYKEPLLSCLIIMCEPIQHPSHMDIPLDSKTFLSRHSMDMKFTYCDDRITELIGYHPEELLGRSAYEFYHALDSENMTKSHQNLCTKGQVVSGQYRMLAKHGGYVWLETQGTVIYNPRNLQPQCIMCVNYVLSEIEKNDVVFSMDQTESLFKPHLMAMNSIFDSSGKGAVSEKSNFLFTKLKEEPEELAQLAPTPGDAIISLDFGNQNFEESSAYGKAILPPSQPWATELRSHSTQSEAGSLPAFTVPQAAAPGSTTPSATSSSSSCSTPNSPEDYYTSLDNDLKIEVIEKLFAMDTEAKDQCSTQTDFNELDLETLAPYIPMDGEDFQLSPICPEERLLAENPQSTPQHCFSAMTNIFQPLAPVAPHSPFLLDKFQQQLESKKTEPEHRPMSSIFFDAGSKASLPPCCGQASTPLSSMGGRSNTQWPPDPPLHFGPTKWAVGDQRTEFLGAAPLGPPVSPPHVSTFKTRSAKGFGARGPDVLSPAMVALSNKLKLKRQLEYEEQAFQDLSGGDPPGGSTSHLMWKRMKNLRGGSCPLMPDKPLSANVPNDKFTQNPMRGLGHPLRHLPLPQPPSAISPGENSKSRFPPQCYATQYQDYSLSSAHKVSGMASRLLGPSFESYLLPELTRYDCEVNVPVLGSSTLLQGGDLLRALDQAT

How the values were obtained:
V5-RSUME Y61A/P62A = molecular target: T1, V5-RSUME Y61A/P62A (UniProt Q9Y3V2); assay: co-IP; co-immunoprecipitation of VHL or VHL K171R with the RSUME YAPA variant (Supplementary Fig. S5, lanes 6 and 8); cells and precipitating antibody not told in the text shown
T1 sequence: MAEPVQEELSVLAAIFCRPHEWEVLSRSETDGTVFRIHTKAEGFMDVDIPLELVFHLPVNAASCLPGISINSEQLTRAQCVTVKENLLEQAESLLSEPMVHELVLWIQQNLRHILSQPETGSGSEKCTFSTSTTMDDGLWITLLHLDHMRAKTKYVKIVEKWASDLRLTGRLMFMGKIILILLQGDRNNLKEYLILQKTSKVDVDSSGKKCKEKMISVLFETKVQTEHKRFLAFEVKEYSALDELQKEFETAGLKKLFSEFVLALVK

[1] = molecular target: T2, V5-RSUME (RWD domain-containing protein SUMO Enhancer) (UniProt Q9Y3V2); assay: co-IP; tandem immunoprecipitation: COS-7 cells with Flag-VHL variants, V5-RSUME and HA-HIF-2α, 5 μM MG-132 for 6 h; first IP anti-FLAG, elution with 3xFLAG peptide 100 μg/ml in RIPA buffer 1 h 4 °C, second IP anti-V5; western blot (Fig. 4a)
T2 sequence: T1 sequence with A61Y, A62P

**Q.** For “Flag-VHL (wild type) (from UniProt P40337 1-213)”, which binding (V5-RSUME Y61A/P62A) is on record?
**A.** binds

**Q.** For “Flag-VHL K171R (from UniProt P40337 1-213)”, which binding (V5-RSUME Y61A/P62A) is on record?
**A.** binds

**Q.** For HA-HIF-2α (from UniProt Q99814 1-870), which binding [1] is on record?
**A.** binds
